Measured values published in paper PMC9788671.
Results are given in words; binding and its absence hold for the method and conditions named. In cells and extracts the contact can be indirect. These calls come from enrichment with a bait or labelling near it, and not all partners need be listed.

Amino acid sequences for entries named in this document (tags omitted).
UniProt Q9NZV8: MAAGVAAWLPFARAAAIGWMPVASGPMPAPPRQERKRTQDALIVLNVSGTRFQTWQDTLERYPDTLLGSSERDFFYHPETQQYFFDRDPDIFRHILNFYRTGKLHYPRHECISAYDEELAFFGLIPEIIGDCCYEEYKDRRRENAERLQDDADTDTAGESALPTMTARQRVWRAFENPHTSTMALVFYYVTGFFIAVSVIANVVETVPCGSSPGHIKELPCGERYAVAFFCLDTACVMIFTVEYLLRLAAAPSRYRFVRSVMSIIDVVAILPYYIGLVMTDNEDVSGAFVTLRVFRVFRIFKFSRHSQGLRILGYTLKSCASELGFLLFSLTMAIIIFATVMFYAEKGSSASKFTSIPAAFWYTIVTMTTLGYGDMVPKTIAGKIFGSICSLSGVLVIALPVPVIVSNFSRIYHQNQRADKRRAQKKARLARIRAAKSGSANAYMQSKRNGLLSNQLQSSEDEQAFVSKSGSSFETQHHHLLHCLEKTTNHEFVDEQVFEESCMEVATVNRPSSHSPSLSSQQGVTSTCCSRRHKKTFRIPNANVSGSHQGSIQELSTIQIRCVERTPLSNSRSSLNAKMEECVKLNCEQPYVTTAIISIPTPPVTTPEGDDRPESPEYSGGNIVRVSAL

Molecular target: TAP-Kv4.2 (human) (UniProt Q9NZV8)
Assay: affinity purification with mass spectrometry; TAP-Kv4.2 expressed by lentivirus in rat hippocampal neurons, harvested at DIV14; strong lysis buffer (1% Triton X-100, 0.5% deoxycholate in PBS, pH 7.4); streptavidin resin, then calmodulin resin; gel cut into high and low molecular weight fragments; no MS of the control sample

B1: Fam120a (protein, UniProt D4AB03 1-1116)
chain: MGVQGFQDYIEKHCPSAVVPVELQKLARGSLVGGGRQRPPQTPLRLLVDADNCLHRLYGGFYTDWVSGGQWNHMLGYLAALAKACFGGNIELFVFFNGALEKARLHEWVKRQGNERQTAQQIVSHVQNKGTPPPKVWFLPPVCMAHCIRLALIRFHVKVAQSIEDHHQEVIGFCRENGFHGLVAYDSDYALCNIPYYFSAHALKLSRNGKSLTTSQYLMHEVAKQLDLNPNRFPIFAALLGNHILPDEDLASFHWSLLGPEHPLASLKVRAHQLVLPPCDVVIKAVADYVRNIHDTSDLDAIAKDVFQHSQSRTDDKVIRFKRAVGYYSATSKPMPFHPPHYLPRPNPFGMPGMVPPYVPPQMLNIPQTSLQAKPAVPQVPSPGGTPGQAPYPYSLPEPALALDSSGKNLTEQNSYSNIPHEGKHTPLYERSSPINLAQSGSPNHVDSAYFPGSSTSSSSDNDEGSGGATNHISGNKIGWEKTGSHAEPLARGDPGDQVKVEGSSTASSGSQLAEGKGSHMGTVQPIPCLLSMPTRNHMDITTPPLPPVAPEVLRVAEHRHKKGLMYPYIFHVLTKGEIKIAVSIEDEANKDLPPAALLYRPVRQYVYGVLFSLAESRKKTERLAFRKNRLPPEFSPLIIKEWAAYKGKSPQTPELVEALAFREWTCPNLKRLWLGKAVEDKNRRMRAFLACMRSDTPAMLNPANVPTHLMVLCCVLRYMVQWPGARILRRQELDAFLAQALSPKLYEPDQLQELKIENLDPRGIQLSALFMSGVDMALFANDACGQPIPWEHCCPWMYFDGKLFQSKLLKASREKTPLIDLCDGQAEQAAKVEKMRQSILEGLNFSRQNHPLPFPPPPALPFYPASVYPRHFGPVPPSQGRGRGFAGVCGFGGHYGETVATGPYRAFRVTAASGHCGAFSGSDSNRTSKSQGGVQPIPSQGGKLEIAGTVVGHWAGSRRGRGGRGPFPLQVVSVGGPARGRPRGVISTPVIRTFGRGGRYYGRGYKSQGAIQGRPPYAASAEEVAKELKSKSGESKSSAVSSEGSLAENGVMAEEKPVPQLNGSTADTRAPSHSESALNNDSKTCNTNPHLNALSTDSACRREAALEAAVLNKEE
B1 was tested, and the binding was “binds”.

B2: Pkp4 (protein, UniProt F1M2K6 1-1146)
chain: MEELQFQRLTRELEVERQIVASQLERCRLGAESPSIASTSSTEKSFPWRSTDVPNTGVSKPRVSDTVHPNNYLIRTEPEQGALYSPEQTSLHERSLGNSRSSTQMNSYSDSGYQEAGSFHNSQTVNKADSRQHPFTGSTSNHVVRNSRAEGQTLVQPSVANRAMRRVSSVPSRAQSPSYVTSTGVSPSRGSLRTSLGSGFGSPSVTDSRPLNPSTYSSSTLPAQRAASPYSQRPASPTAVRRVGSVTSRQTSNPNGPVPQYQTTTRVGSPLTLTDAQTRVASPSQGQVGSSSPKRSGMTAVPQHLGPSLQRTVHDMDQFGQQQYDIYERMVPPRPDSLTGLRSSYASQHSQLGQDLRSAVSPDLHITPIYEGRTYYSPVYRSPNHGTVELQGSQTALYRTGSVGIGNLQRTSSQRSTLTYQRNNYALNTAATYAEPYRPVQYRVQECSYNRLPHTGPADDGATRSPSIDSIQKDPREFAWRDPELPEVIHMLQHQFPSVQANAAAYLQHLCFGDNKVKMEVYRLGGIKHLVDLLDHRVLEVQKNACGALRNLVFGKSTDENKIAMKNVGGIPALLRLLRKSIDAEVRELVTGVLWNLSSCDAVKMTIIRDALSTLTNTVIVPHSGWNDSSFDDDHKIKFQTSLVLRNTTGCLRNLSSAGEEARKQMRSCEGLVDSLLYVIHTCVNTSDYDSKTVENCVCTLRNLSYRLELEVPQARLLGLNELDDLLGKESPSKDSEPSCWGKKKKKKKRTPQEDQWDGVGPIPGLSKSPKGVEMLWHPSVVKPYLTLLAESSNPATLEGSAGSLQNLSAGNWKFAAYIRAAVRKEKGLPILVELLRMDNDRVVSSVATALRNMALDVRNKELIGKYAMRDLVNRLPGGNGPSILSDETVAAICCALHEVTSKNMENAKALADSGGIEKLVNITKGRGDRSSLKVVKAAAQVLNTLWQYRDLRSIYKKDGWNQNHFITPVSTLERDRFKSHPSLSTTNQQMSPVIQSVGSTSSSPALLGIREPRSEYDRTQPPMQYYNSQGDTTHKGLYPGSSKPSPIYISSYSSPAREQNRRLQHQQLYYQDDSTRKTLDAYRLYLQSPRSYEDPYGDDRVHFPASTDYSTQYGLKSTTNYVDFYSTKRPSYRAEQYPGSPDSWV
B2 was tested, and the binding was “binds”.

B3: Thrap3 (protein, UniProt Q5M7V8 1-951)
chain: MSKTNKSKSGSRSSRSRSASRSRSRSFSKSRSRSRSVSRSRKRRLSSRSRSRSYSPAHNRERNHPRVYQNRDFRGHNRGYRRPYYFRGRNRGFYPWGQYNRGGYGNYRSNWQNYRQAYSPRRGRSRSRSPKRRSPSPRSRSHSRNSDKSSSDRSRRSSSSRSSSNHSRVESSKRKSTKEKKSSSKDSRPSQAAGDNQGDEAKEQTFSGGTSQDIKGSESSKPWPDATTYGTGSASRASVSDLSPRERSPALKSPLQSVVVRRRSPRPSPVPKPSPPLSNASQMGSSMSGGAGYQSGAHQGPFDHGSGSLSPSKKSPVGKSPPATGSAYGSSQKEESAASGGAAYTKRYLEEQKTENGKDKEQKQTNTDKEKLKEKGGFSDADVKMKSDPFAPKTDTEKPFRGSQSPKRYKLRDDFEKKMADFHKEEMDEQDKDKCKGRKEPEFDDEPKFISKVIAGASKNQEEEKSGKWESLHAGKEKQRKAEELEEEPFTERSRKEERGGSKRSESGHRGFVPEKNFRVTAYKAVQEKSSSPPPRKTSESRDKLGNKGDFSSGKSSFSITREAQVNVRMDSFDEDLARPSGLLAQERKLCRDLVHSNKKEQEFRSIFQHIQSAQSQRSPSELFAQHIVTIVHHVKEHHFGSSGMTLHERFTKYLKRGNEQEAAKTKKSPEIHRRIDISPSTFRKHGLTHEELKSPREPGYKAEGKYKDDPVDLRLDIERRKKHKERDLKRGKSRESVDSRDSSHSRERSTEKTEKTHKGSKKQKKHRRARDRSRSSSSSSQSSHSYKAEEYPEEAEDREESTTGFDKSRLGTKDFVGPNERGGRARGTFQFRARGRGWGRGNYSGNNNNNSNNDFQKRSREEEWDPEYTPKSKKYYLHDDREGEGSDKWMSRGRGRGAFPRGRGRFMFRKSSTSPKWAHDKFSGEEGEIEDDESGTENREEKDSLQPSAE
For B3, the binding was “binds”.

B4: Nup153 (protein, UniProt P49791 1-1468)
chain: MASGAGGIGGGGGGGKIRTRRCHQGPVKPYQQGRPQHQGILSRVTESVKNIVPGWLQRYFNKSENACSCSVNADEVPRWPENREDEREIYVDENTNTDDGRTTPEPTGSNTEEPSTTSTASNYPDVLTRPSLHRSHLNFSVLESPALHCQPSTSSAFPIGSSGFSLVKEIKDSTSQHDDDNISTTSGFSSRASEKDIAVSKNTSLPPLWSPEAERSHSLSQHTAISSKKPAFNLSAFGTLSTSLGNSSILKTSQLGDSPFYPGKTTYGGAAAAVRQNKVRSTPYQAPVRRQMKAKQLNAQSYGVTSSTARRILQSLEKMSSPLADAKRIPSAVSSPLNSPLDRSGIDSTVFQAKKEKVDSQYPPVQRLMTPKPVSIATNRTVYFKPSLTPSGDLRKTNQRIDKKNSTVDEKNISRQNREQESGFSYPNFSIPAANGLSSGVGGGGGKMRRERTTHFVASKPSEEEEVEVPLLPQISLPISSSSLPTFNFSSPAISAASSSSVSPSQPLSNKVQMTSLGSTGNPVFTFSSPIVKSTQADVLPPASIGFTFSVPLAKTELSGPNSSSETVLSSSVTAQDNTVVNSSSSKKRSAPCEDPFTPAKILREGSVLDILKTPGFMSPKVDSPALQPTTTSSIVYTRPAISTFSSSGVEFGESLKAGSSWQCDTCLLQNKVTDNKCIACQAAKLPLKETAKQTGIGTPSKSDKPASTSGTGFGDKFKPAIGTWDCDTCLVQNKPEAVKCVACETPKPGTGVKRALPLTVASESPVTASSSTTVTTGTLGFGDKFKRPVGSWECPVCCVSNKAEDSRCVSCTSEKPGLVSASSSNSVPVSLPSGGCLGLDKFKKPEGSWDCEVCLVQNKADSTKCIACESAKPGTKSEFKGFGTSSSLNPAPSAFKFGIPSSSSGLSQTFTSTGNFKFGDQGGFKLGTSSDSGSTNTMNTNFKFPKPTGDFKFGVLPDSKPEEIKNDSKNDNFQFGPSSGLSNPASSAPFQFGVSTLGQQEKKEELPQSSSAGFSFGAGVANPSSAAIDTTVTSENKSGFNFGTIDTKSVSVTPFTYKTTEAKKEDASATKGGFTFGKVDSAALSSPSMFVLGRTEEKQQEPVTSTSLVFGKKADNEEPKCQPVFSFGNSEQTKDESSSKPTFSFSVAKPSVKESDQLAKATFAFGNQTNTTTDQGAAKPAFSFLNSSSSSSSTPATSSSASIFGSSTSSSSPPVAAFVFGQASNPVSSSAFGNSAESSTSQPLLFPQDGKPATTSSTASAAPPFVFGTGASSNSTVSSGFTFGATTTSSSSGSFFVFGTGHSAPSASPAFGANQTPTFGQSQGASQPNPPSFGSISSSTALFSAGSQPVPPPTFGTVSSSSQPPVFGQQPSQSAFGSGTANASSVFQFGSSTTNFNFTNNNPSGVFTFGASPSTPAAAAQPSGSGGFSFSQSPASFTVGSNGKNMFSSSGTSVSGRKIKTAVRRKK
B4 was tested, and the binding was “binds”.

B5: Rasgrf2 (protein, UniProt Q99JE4 1-1190)
chain: MQKSVRYNEGHALYLAFLARKEGTKRGFLSKKAAEASRWHEKWFALYQNVLFYFEGEQSGRPAGMYLLEGCSCERTPAPPRTNAGPAGARDALDKQYYFTVLFGHEGQKPLELRCEEEQAGKEWMEAIHQASYADILIEREVLMQKYIHLVQIVETEKIAANQLRHQLEDQDTEIERLKSEIVALNKTKERMRPYHTHQEEEDPDIKKIKKVQSFMRGWLCRRKWKTIVQDYICSPHAESMRKRNQIVFTMVEAESEYVHQLYILVNGFLRPLRMAASSKKPPISHDDVSSIFLNSETIMFLHEIFHQGLKARLANWPTLVLADLFDILLPMLNIYQEFVRNHQYSLQVLANCKQNRDFDKLLKQYEGNPACEGRMLETFLTYPMFQIPRYIITLHELLAHTPHEHVERKSLEFAKSKLEELSRVMHDEVSDTENIRKNLAIERMIVEGCDILLDTSQTFIRQGSLIQVPSVERGKLSKVRLGSLSLKKEGERQCFLFTKHFLICTRSSGGKLHLLKTGGVLSLIQCTLIEEPDTSDDDTKGPGHMFGHLDFKIVVEPPDAAPFTVVLLAPSRQEKAAWMSDISQCVDNIRCNGLMTIVFEENSKVTVPHMIKSDARLHKDDTDICFSKTLNSCKVPQIRYASVERLLERLTDLRFLSIDFLNTFLHTYRIFTTAAVVLGKLSDIYKRPFTSIPVRSLELFFATSQNNREHLVDGKSPRLCRKFSSPPPLAVSRTSSPVRARKLSLTSSLNSRIGALDLTTSSSSSSPTTTVHSPAASPPPHTAVPESAPADRAGDSTDMSPCRSPSTTPRHLRYRQPGGQVADSTHCAVSPASAFAIATAAAGHGSPPGFNNERTCDKEFIIRRTATNRVLNVLRHWVSKHSQDFELNNELKMNVLNLLEEVLRDPDLLPQERKATANILRALSQDDQDDIHLKLEDIIQMTDCPKAECFETLSAMELAEQITLLDHIVFRSIPYEEFLGQGWMKLDKNERTPYIMKTSQHFNEMSNLVASQIMNYADISSRANAIEKWVAVADICRCLHNYNGVLEITSALNRSAIYRLKKTWTKVSKQTKALMDKLQKTVSSEGRFKNLRETLKNCNPPAVPYLGMYLTDLAFIEEGTPNFTEEGLVNFSKMRMISHIIREIRQFQQTAYRIDQQPKVIQYLLDKALVIDEDTLYELSLKIEPRLPA
With B5 the binding was “binds”.
